Reference: patent US20230096824A1
Results are given in words; binding and its absence hold for the method and conditions named. Some binding calls cover weakened binding; strength is not graded here. Tags and fused reporters may be left off the sequences shown.

T1: human TM4SF1 (transmembrane-4 L six family member-1) (human) (UniProt P30408)
T1 sequence: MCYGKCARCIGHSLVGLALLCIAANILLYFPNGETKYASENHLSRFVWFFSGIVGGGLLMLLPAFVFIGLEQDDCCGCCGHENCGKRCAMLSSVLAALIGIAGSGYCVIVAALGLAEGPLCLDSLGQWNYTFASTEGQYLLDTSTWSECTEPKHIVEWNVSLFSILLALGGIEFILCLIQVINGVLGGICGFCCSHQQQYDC

B1: AGX-A07 antibody without Fc region mutations (antibody, V domains shown)
VH: QIQLVQSGPELKKPGETVKISCKASGYTFTNYGVKWVKQAPGKDLKWMGWINTYTGNPIYAADFKGRFAFSLETSASTAFLQINNLKNEDTATYFCVRFQYGDYRYFDVWGAGTTVTVSS
VL: QIILSQSPAILSASPGEKVTMTCRANSGISFINWYQQKPGSSPKPWIYGTANLASGVPARFGGSGSGTSYSLTISRVEAEDAATYYCQQWSSNPLTFGAGTKLELR
B2: AGX-A07 variant comprising Fc region mutation N297C (the "C" variant) (antibody, V domains shown)
VH: B1 VH
VL: B1 VL
B3: AGX-A07 variant comprising N297C in combination with the mutations M252Y, S254T, and T256E (the "YTEC" variant) (antibody, V domains shown)
VH: B1 VH
VL: B1 VL

These binders were tested against T1, human TM4SF1 (transmembrane-4 L six family member-1) (human) (assay: cell-based flow cytometry on HUVEC cells).

Row | Binder | binding
1 | B1 | binds
2 | B2 | binds
3 | B3 | binds
